# Data as given in PubChem BioAssay AID1259254 (NCATS, 2017).
# Purpose: 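Gene knock-downs that lead to re-replication, shown by excess G2 DNA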 (primary screen)
# Cell system: human HCT116 colorectal cancer cells
# Reagent: single siRNA against human genes
# Timing: 3 days
# Read-out: 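Imaged Hoechst DNA stain sorts each cell into a cycle phase by DNA amount; per plate, G2 fraction set to 0% for non-targeting and 100% for GMNN siRNA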
# Reading the numbers: G2 robust z-score and G2 cells, % of GMNN control: higher = more G2 cells, more excess DNA replication
# Call rule: 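An siRNA counts as active if its G2 robust z-score lies at least 5 MADs above the screen median; here such calls match roughly 38% of GMNN control or more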
# The deposit covers about 59,000 reagents; shown is a part drawn at random. About 1,550 of all reagents (2.6%) count as active. 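G2 share is only a proxy for re-replication; each gene was hit by three separate siRNAs, and active genes were retested.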 The numbers tell different reagents against one gene apart. Not all columns of the deposit are shown. Not given: the amount of reagent.
The first 4 entries, ahead of the listing:
G2 robust z-score,"G2 cells, % of GMNN control",Outcome,gene symbol,reagent no.
-0.602,-1.27,inactive,LRRC8B (leucine rich repeat containing 8 VRAC subunit B),1
0.514,6.59,inactive,LRRC8B (leucine rich repeat containing 8 VRAC subunit B),2
1.04,10.3,inactive,LRRC8B (leucine rich repeat containing 8 VRAC subunit B),3
3.51,27.6,inactive,MRPS12 (mitochondrial ribosomal protein S12),1

The list itself, from the start:
G2 robust z-score,"G2 cells, % of GMNN control",Outcome,gene symbol,reagent no.
-0.602,-1.27,inactive,LRRC8B (leucine rich repeat containing 8 VRAC subunit B),1
0.514,6.59,inactive,LRRC8B (leucine rich repeat containing 8 VRAC subunit B),2
1.04,10.3,inactive,LRRC8B (leucine rich repeat containing 8 VRAC subunit B),3
3.51,27.6,inactive,MRPS12 (mitochondrial ribosomal protein S12),1
-0.944,-3.67,inactive,MRPS12 (mitochondrial ribosomal protein S12),2
-0.493,-0.502,inactive,MRPS12 (mitochondrial ribosomal protein S12),3
-1.01,-4.17,inactive,CBLN4 (cerebellin 4 precursor),1
-0.389,0.227,inactive,CBLN4 (cerebellin 4 precursor),2
0.369,5.56,inactive,CBLN4 (cerebellin 4 precursor),3
-0.15,1.91,inactive,NARS1 (asparaginyl-tRNA synthetase 1),1
4.54,34.9,inactive,NARS1 (asparaginyl-tRNA synthetase 1),2
0.358,5.49,inactive,NARS1 (asparaginyl-tRNA synthetase 1),3
4.12,32,inactive,TNFRSF1A (TNF receptor superfamily member 1A),1
-0.229,1.36,inactive,TNFRSF1A (TNF receptor superfamily member 1A),2
0.628,7.39,inactive,TNFRSF1A (TNF receptor superfamily member 1A),3
-0.0805,2.4,inactive,TIAL1 (TIA1 cytotoxic granule associated RNA binding protein like 1),1
-1.15,-5.16,inactive,TIAL1 (TIA1 cytotoxic granule associated RNA binding protein like 1),2
1.67,14.7,inactive,TIAL1 (TIA1 cytotoxic granule associated RNA binding protein like 1),3
1.16,11.1,inactive,KIRREL1 (kirre like nephrin family adhesion molecule 1),1
-0.709,-2.02,inactive,KIRREL1 (kirre like nephrin family adhesion molecule 1),2
0.708,7.95,inactive,KIRREL1 (kirre like nephrin family adhesion molecule 1),3
-0.552,-0.919,inactive,PPP4R1 (protein phosphatase 4 regulatory subunit 1),1
-0.574,-1.07,inactive,PPP4R1 (protein phosphatase 4 regulatory subunit 1),2
1.15,11.1,inactive,PPP4R1 (protein phosphatase 4 regulatory subunit 1),3
-0.435,-0.0921,inactive,HOOK3 (hook microtubule tethering protein 3),1
-0.268,1.08,inactive,HOOK3 (hook microtubule tethering protein 3),2
-0.459,-0.259,inactive,HOOK3 (hook microtubule tethering protein 3),3
1.41,12.9,inactive,C1orf52 (chromosome 1 open reading frame 52),1
2.89,23.3,inactive,C1orf52 (chromosome 1 open reading frame 52),2
-0.434,-0.0868,inactive,C1orf52 (chromosome 1 open reading frame 52),3
-0.702,-1.97,inactive,KRT17 (keratin 17),1
0.468,6.26,inactive,KRT17 (keratin 17),2
-0.833,-2.89,inactive,KRT17 (keratin 17),3
-0.681,-1.83,inactive,ZFC3H1 (zinc finger C3H1-type containing),1
-0.275,1.03,inactive,ZFC3H1 (zinc finger C3H1-type containing),2
-0.133,2.03,inactive,ZFC3H1 (zinc finger C3H1-type containing),3
2.42,20,inactive,ARID1A (AT-rich interaction domain 1A),1
1.34,12.4,inactive,ARID1A (AT-rich interaction domain 1A),2
-0.43,-0.0546,inactive,ARID1A (AT-rich interaction domain 1A),3
0.176,4.2,inactive,LOC728667 (dehydrogenase/reductase 4 like 2 pseudogene),1
-0.445,-0.161,inactive,LOC728667 (dehydrogenase/reductase 4 like 2 pseudogene),2
-1.03,-4.25,inactive,LOC728667 (dehydrogenase/reductase 4 like 2 pseudogene),3
12.8,93.3,active,MORC2 (MORC family CW-type zinc finger 2),1
0.0359,3.22,inactive,MORC2 (MORC family CW-type zinc finger 2),2
-0.23,1.35,inactive,MORC2 (MORC family CW-type zinc finger 2),3
-0.279,1,inactive,"NPDC1 (neural proliferation, differentiation and control 1)",1
-1.03,-4.31,inactive,"NPDC1 (neural proliferation, differentiation and control 1)",2
0.267,4.84,inactive,"NPDC1 (neural proliferation, differentiation and control 1)",3
-1.17,-5.23,inactive,VASP (vasodilator stimulated phosphoprotein),1
3.7,29,inactive,VASP (vasodilator stimulated phosphoprotein),2
-0.703,-1.98,inactive,VASP (vasodilator stimulated phosphoprotein),3
2.78,22.5,inactive,MLLT10 (MLLT10 histone lysine methyltransferase DOT1L cofactor),1
0.143,3.97,inactive,MLLT10 (MLLT10 histone lysine methyltransferase DOT1L cofactor),2
-0.89,-3.3,inactive,MLLT10 (MLLT10 histone lysine methyltransferase DOT1L cofactor),3
2.08,17.6,inactive,CNTLN (centlein),1
3.87,30.2,inactive,CNTLN (centlein),2
1.82,15.8,inactive,CNTLN (centlein),3
-0.074,2.45,inactive,MACC1 (MET transcriptional regulator MACC1),1
0.528,6.68,inactive,MACC1 (MET transcriptional regulator MACC1),2
0.596,7.16,inactive,MACC1 (MET transcriptional regulator MACC1),3
-1.71,-9.04,inactive,FOXL1 (forkhead box L1),1
3.96,30.8,inactive,FOXL1 (forkhead box L1),2
-0.454,-0.224,inactive,FOXL1 (forkhead box L1),3
1.28,12,inactive,ZCCHC24 (zinc finger CCHC-type containing 24),1
-0.484,-0.438,inactive,ZCCHC24 (zinc finger CCHC-type containing 24),2
0.547,6.82,inactive,ZCCHC24 (zinc finger CCHC-type containing 24),3
0.555,6.87,inactive,TUBE1 (tubulin epsilon 1),1
-0.716,-2.07,inactive,TUBE1 (tubulin epsilon 1),2
-1.03,-4.25,inactive,TUBE1 (tubulin epsilon 1),3
